Results are given in words; binding and its absence hold for the method and conditions named. Binding seen in cells or lysates may run through a third protein. Some results given as binding are weak or reduced against the parent protein; the word gives no strength.
Legend:
Assay in all cases: co-IP
[1] = molecular target: FLAG-tagged CNOT8-R (the C-terminus of CNOT8 replaced with that of CNOT7) (UniProt Q9D8X5)
FLAG-tagged CNOT2 = FLAG-tagged CNOT2 (UniProt Q8C5L3)
FLAG-tagged CNOT3 = FLAG-tagged CNOT3 (UniProt Q8K0V4)
[2] = molecular target: FLAG-tagged CNOT8 (wild type) (UniProt Q9D8X5)
FLAG-tagged CNOT8-M141A = FLAG-tagged CNOT8-M141A (UniProt Q9D8X5)

The chains behind the UniProt entries cited, without tags or fusion partners. Where a name states a change or a piece, a line headed by the entry shows the natural chain unless it says otherwise.
UniProt Q9D8X5, whole entry: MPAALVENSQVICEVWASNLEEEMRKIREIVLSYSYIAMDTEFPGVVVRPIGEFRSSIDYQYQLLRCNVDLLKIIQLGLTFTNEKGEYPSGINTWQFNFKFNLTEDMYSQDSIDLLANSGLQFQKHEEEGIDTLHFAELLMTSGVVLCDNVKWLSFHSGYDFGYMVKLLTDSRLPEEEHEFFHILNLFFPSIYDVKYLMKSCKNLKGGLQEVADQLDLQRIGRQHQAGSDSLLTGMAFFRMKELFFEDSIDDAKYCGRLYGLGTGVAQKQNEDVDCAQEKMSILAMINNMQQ
UniProt Q8C5L3, whole entry: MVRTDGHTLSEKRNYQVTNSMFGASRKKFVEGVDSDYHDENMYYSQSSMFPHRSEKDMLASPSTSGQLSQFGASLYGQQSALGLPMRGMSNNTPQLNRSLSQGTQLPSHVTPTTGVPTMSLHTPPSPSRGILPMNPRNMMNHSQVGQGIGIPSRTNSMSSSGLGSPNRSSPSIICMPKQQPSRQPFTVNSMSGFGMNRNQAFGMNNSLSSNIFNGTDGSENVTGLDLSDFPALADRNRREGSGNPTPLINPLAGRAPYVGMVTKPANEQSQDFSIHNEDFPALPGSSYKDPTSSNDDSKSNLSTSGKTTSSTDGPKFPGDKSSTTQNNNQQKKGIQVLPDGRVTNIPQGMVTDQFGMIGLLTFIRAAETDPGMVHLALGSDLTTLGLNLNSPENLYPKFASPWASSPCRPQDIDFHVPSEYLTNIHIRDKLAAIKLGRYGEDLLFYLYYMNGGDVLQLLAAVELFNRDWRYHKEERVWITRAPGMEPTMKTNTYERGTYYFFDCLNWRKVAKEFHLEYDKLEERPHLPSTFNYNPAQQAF
UniProt Q8K0V4, whole entry: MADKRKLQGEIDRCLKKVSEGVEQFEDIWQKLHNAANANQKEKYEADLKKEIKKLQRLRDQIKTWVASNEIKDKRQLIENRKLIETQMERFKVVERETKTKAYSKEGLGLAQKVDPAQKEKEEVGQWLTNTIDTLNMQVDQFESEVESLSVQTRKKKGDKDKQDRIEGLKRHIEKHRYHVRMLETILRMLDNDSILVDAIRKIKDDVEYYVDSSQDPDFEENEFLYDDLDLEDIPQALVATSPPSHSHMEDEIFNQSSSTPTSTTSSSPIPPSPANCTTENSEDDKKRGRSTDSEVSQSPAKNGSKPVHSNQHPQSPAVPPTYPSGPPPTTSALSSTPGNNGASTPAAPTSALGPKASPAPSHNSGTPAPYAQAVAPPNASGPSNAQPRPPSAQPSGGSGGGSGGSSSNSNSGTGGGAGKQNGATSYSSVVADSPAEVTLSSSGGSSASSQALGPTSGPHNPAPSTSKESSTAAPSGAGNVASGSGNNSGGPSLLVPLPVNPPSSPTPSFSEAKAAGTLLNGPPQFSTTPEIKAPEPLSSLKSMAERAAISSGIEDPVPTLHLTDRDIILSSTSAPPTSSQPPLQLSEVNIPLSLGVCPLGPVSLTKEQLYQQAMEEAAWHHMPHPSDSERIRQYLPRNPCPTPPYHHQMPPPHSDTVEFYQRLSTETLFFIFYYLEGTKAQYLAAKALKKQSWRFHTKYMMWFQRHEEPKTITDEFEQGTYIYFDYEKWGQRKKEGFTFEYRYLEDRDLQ
UniProt Q920Q6, whole entry: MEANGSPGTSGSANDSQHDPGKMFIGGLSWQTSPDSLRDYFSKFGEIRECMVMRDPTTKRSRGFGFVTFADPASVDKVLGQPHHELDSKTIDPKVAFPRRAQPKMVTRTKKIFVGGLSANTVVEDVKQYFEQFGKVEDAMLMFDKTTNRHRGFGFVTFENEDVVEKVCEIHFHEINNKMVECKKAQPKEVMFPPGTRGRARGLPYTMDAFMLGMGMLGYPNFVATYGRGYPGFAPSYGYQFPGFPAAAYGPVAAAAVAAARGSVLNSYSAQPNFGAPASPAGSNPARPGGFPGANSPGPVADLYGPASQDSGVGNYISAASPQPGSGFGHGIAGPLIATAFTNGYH

Measured: binding

HA-tagged MSI2 (Musashi-2) (from UniProt Q920Q6 1-346)
binds: [1] | FLAG-tagged CNOT2 | FLAG-tagged CNOT3 | [2] | FLAG-tagged CNOT8-M141A

Source: doi:10.1101/2024.06.26.599433
